Experimental data as given in publication doi:10.1101/2024.10.23.619882.
No constants are given. Whether binding was seen depends on the method and setting. Binding seen in cells or lysates may run through a third protein. Some results given as binding are weak or reduced against the parent protein; the word gives no strength. For some assays here: Where a sequence is shown, tags or fusion partners need not be part of it. Each block holds one molecule with its values, some of them ahead of it.

Amino acid sequences for entries named in this document (tags omitted). A change or cut given only in a name is not applied to a line headed by its entry. Chains listed by the source or under a name are the forms on record and can include a tag or linker. Residues count along the entry.
UniProt B1AXH1: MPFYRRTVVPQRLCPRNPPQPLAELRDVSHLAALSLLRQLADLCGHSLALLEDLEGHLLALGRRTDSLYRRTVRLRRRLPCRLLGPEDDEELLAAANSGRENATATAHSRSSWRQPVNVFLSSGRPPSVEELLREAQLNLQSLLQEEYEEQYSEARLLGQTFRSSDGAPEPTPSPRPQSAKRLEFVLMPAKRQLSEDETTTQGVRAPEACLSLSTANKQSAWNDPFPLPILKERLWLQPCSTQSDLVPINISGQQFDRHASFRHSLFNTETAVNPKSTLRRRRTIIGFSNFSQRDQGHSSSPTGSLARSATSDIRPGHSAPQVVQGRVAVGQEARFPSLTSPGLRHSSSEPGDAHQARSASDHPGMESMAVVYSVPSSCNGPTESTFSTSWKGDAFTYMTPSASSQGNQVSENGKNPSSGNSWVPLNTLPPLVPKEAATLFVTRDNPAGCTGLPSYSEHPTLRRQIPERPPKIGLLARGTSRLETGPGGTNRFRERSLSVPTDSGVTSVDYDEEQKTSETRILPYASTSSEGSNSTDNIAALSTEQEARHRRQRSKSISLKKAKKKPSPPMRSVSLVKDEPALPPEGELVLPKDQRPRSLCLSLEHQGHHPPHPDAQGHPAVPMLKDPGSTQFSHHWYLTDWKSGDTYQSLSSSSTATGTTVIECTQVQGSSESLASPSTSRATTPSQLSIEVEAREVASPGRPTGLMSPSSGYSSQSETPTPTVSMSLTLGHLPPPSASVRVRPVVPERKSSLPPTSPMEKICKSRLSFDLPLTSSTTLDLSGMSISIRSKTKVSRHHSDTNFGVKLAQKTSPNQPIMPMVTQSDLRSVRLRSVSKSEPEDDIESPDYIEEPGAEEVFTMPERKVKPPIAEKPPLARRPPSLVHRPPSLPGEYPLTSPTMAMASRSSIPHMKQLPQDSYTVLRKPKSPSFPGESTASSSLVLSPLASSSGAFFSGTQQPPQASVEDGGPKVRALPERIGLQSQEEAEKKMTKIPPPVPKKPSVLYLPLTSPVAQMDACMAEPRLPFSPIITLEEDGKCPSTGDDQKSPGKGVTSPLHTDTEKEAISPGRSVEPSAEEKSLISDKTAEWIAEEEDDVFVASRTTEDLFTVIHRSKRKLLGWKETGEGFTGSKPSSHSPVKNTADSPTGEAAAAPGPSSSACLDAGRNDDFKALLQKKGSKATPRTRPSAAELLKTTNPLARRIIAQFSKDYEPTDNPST
UniProt Q99962: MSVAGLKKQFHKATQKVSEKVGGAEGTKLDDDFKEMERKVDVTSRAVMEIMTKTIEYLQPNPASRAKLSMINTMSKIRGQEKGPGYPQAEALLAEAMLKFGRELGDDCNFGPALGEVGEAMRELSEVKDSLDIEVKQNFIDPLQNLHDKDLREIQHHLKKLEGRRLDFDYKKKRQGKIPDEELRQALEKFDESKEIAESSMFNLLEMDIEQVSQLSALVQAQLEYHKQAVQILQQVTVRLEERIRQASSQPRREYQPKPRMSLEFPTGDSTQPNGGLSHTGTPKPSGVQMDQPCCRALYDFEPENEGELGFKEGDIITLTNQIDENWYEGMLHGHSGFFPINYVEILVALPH
GST-tagged SH3 domain of EndoA1: residues 290-349 of Q99962
UniProt Q99963: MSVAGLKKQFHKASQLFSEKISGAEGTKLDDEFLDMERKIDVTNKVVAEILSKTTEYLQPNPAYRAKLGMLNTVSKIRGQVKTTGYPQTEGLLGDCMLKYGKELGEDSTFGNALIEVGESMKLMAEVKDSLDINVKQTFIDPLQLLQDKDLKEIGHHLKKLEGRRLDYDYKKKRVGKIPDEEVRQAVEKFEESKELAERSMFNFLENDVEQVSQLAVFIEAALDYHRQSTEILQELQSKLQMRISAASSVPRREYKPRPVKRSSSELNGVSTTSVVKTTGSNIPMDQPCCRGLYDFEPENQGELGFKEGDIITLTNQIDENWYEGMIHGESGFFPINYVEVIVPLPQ
GST-tagged SH3 domain of EndoA3: residues 285-344 of Q99963
UniProt Q8CAF4: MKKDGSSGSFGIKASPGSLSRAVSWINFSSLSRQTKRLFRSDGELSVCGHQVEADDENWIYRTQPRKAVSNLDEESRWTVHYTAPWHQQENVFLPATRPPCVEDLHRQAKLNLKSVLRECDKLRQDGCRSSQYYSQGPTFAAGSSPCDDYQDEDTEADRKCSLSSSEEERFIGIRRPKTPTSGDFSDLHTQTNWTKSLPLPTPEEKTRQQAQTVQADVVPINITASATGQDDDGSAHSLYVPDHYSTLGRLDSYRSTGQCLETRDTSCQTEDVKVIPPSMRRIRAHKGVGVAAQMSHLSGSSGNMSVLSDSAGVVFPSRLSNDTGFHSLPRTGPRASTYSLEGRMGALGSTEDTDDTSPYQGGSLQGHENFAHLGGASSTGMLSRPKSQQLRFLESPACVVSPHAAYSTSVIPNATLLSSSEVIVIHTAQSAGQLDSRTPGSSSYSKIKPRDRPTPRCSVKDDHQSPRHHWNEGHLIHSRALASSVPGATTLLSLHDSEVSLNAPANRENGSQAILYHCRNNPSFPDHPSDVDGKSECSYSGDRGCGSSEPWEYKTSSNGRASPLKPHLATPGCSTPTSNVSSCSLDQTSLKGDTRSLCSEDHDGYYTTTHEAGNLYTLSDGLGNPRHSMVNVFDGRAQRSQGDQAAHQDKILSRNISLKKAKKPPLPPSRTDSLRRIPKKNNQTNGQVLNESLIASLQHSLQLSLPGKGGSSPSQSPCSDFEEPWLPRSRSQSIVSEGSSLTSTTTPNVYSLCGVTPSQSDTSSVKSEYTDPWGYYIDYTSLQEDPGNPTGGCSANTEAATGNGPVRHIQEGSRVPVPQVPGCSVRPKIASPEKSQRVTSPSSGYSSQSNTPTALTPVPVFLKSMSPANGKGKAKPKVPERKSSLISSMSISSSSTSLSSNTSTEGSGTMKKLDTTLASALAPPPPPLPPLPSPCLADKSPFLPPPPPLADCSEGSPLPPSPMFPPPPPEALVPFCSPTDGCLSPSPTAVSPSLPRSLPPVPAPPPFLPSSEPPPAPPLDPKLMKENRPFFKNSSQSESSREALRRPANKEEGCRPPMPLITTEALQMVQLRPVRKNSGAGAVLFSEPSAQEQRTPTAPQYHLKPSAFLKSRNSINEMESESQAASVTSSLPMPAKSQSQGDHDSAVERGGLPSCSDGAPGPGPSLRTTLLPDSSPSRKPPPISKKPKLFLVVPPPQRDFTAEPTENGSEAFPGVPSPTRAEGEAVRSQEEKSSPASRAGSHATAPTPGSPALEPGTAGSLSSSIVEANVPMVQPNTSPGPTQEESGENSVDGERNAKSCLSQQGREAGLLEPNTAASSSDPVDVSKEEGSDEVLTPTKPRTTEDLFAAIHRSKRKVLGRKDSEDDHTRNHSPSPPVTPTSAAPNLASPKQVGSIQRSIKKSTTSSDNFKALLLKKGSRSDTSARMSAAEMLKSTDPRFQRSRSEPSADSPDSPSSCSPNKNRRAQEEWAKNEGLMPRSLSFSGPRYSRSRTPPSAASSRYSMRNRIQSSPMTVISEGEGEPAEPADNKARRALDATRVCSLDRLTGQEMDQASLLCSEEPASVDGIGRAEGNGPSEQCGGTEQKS

Key:
[1] = biological target: EGFP-tagged NHSL2 (mouse) (UniProt B1AXH1); assay: pull-down
[2] = biological target: EndoA1-EGFP (endophilin-A1) (human) (UniProt Q99962); assay: pull-down
[3] = biological target: EndoA2-EGFP (C-terminally EGFP-tagged rat full length endophilin-A2) (rat) (UniProt O35964); assay: pull-down
[4] = biological target: T1, GST-tagged SH3 domain of EndoA2 (rat) (UniProt O35964); assay: pull-down
T1 sequence: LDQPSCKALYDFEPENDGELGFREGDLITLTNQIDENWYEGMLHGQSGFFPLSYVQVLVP

[5] = biological target: GST-tagged SH3 domain of EndoA3 (human) (UniProt Q99963); assay: pull-down
[6] = biological target: EndoA3-EGFP (endophilin-A3) (human) (UniProt Q99963); assay: pull-down
[7] = biological target: GST-tagged SH3 domain of EndoA1 (human) (UniProt Q99962); assay: pull-down
[8] = biological target: endogenous NHSL1 (mouse (endogenous in B16-F1)) (UniProt Q8CAF4); assay: co-IP

binding [1]: binds
Molecule: Myc-tagged wild-type EndoA2 (endophilin A2) (from UniProt O35964 1-368)

binding [2]: binds
binding [3]: binds
binding [4]: binds
binding [5]: binds
binding [6]: binds
binding [7]: binds
Molecule: Myc-tagged NHSL2 (from UniProt B1AXH1 1-1219)

binding [8]: binds
B1: endogenous EVL (protein, UniProt P70429 1-414)
chain: MSEQSICQARASVMVYDDTSKKWVPIKPGQQGFSRINIYHNTASSTFRVVGVKLQDQQVVINYSIVKGLKYNQATPTFHQWRDARQVYGLNFASKEEATTFSNAMLFALNIMNSQEGGPSTQRQVQNGPSPEEMDIQRRQVMEQQHRQESLERRISATGPILPPGHPSSAASTTLSCSGPPPPPPPPVPPPPTGSTPPPPPPLPAGGAQGTNHDESSASGLAAALAGAKLRRVQRPEDASGGSSPSGTSKSDANRASSGGGGGGLMEEMNKLLAKRRKAASQTDKPADRKEDESQTEDPSTSPSPGTRATSQPPNSSEAGRKPWERSNSVEKPVSSLLSRTPSVAKSPEAKSPLQSQPHSRVKPAGSVNDVGLDALDLDRMKQEILEEVVRELHKVKEEIIDAIRQELSGISTT
